PubChem BioAssay AID1508597 – Cure First | 2020
Test: 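Survival screen with siRNA in ovarian cancer cells derived from patients, with or without rucaparib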 (primary screen). Cell system: human ovarian carcinoma lines grown from tumours: OCI-P5x (papillary serous) and OCI-C5x (clear cell). Knock-down reagent: siRNA pool against human genes, 1.25 pmol siRNA per well. Duration: 72 h or 96 h, depending on the cell culture. Treatment: rucaparib 20 µM (about IC30) or vehicle, present until read-out. Rucaparib or vehicle: Rucaparib. Cell line: OCI-P5x (serous). Measurement: 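Luminescent ATP-based viability assay read 72 or 96 h after transfection, depending on culture, given as normalised percent viability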. Reading the numbers: viability, normalised: higher = more viable cells remaining. Rule for the call: 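Active when normalised viability falls below 80 percent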. Meaning of the calls: active = viability under 80%; inactive = viability 80% or more.
Shown is an unselected part of the about 2,100 reagents, under one of the conditions tested. 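Calls flag viability under 80% in either arm, not effects specific to rucaparib; the reference for percent is not stated.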 Not given: the 100% reference.

YEATS4, technical replicate 1 — viability, normalised (%): 46.8; activity call: active
YEATS4, technical replicate 2 — viability, normalised (%): 54.7; activity call: active
YEATS4, technical replicate 3 — viability, normalised (%): 55.7; activity call: active
CYP7A1, technical replicate 1 — viability, normalised (%): 85.4; activity call: inactive
CYP7A1, technical replicate 2 — viability, normalised (%): 85.7; activity call: inactive
CYP7A1, technical replicate 3 — viability, normalised (%): 94.3; activity call: inactive
ZSCAN21, technical replicate 1 — viability, normalised (%): 96.9; activity call: inactive
ZSCAN21, technical replicate 2 — viability, normalised (%): 91.3; activity call: inactive
ZSCAN21, technical replicate 3 — viability, normalised (%): 93.9; activity call: inactive

Looked up above.
For “activity call”, CYP7A1, technical replicate 3 reads inactive
Entry of YEATS4, technical replicate 3 under “viability, normalised (%)”: 55.7
ZSCAN21, technical replicate 2, activity call → inactive

The results go on.
SCYL2, technical replicate 1 — viability, normalised (%): 66.5; activity call: active
SCYL2, technical replicate 2 — viability, normalised (%): 53.5; activity call: active
SCYL2, technical replicate 3 — viability, normalised (%): 62; activity call: active
MTA2, technical replicate 1 — viability, normalised (%): 43; activity call: active
MTA2, technical replicate 2 — viability, normalised (%): 60.6; activity call: active
MTA2, technical replicate 3 — viability, normalised (%): 50.5; activity call: active
DMAP1, technical replicate 1 — viability, normalised (%): 91.7; activity call: inactive
DMAP1, technical replicate 2 — viability, normalised (%): 89.4; activity call: inactive
DMAP1, technical replicate 3 — viability, normalised (%): 84; activity call: inactive
DYRK2, technical replicate 1 — viability, normalised (%): 102; activity call: inactive
DYRK2, technical replicate 2 — viability, normalised (%): 114; activity call: inactive
DYRK2, technical replicate 3 — viability, normalised (%): 112; activity call: inactive
